Patent US20230235054A1 (BIOATLA, published 2023)
Substitutions are numbered along the chain they refer to. Results are given in words; binding and its absence hold for the method and conditions named. Some results given as binding are weak or reduced against the parent protein; the word gives no strength.

T1: human Nectin-4 on cells (human, UniProt Q96NY8 32-510)
T1 sequence (looked up): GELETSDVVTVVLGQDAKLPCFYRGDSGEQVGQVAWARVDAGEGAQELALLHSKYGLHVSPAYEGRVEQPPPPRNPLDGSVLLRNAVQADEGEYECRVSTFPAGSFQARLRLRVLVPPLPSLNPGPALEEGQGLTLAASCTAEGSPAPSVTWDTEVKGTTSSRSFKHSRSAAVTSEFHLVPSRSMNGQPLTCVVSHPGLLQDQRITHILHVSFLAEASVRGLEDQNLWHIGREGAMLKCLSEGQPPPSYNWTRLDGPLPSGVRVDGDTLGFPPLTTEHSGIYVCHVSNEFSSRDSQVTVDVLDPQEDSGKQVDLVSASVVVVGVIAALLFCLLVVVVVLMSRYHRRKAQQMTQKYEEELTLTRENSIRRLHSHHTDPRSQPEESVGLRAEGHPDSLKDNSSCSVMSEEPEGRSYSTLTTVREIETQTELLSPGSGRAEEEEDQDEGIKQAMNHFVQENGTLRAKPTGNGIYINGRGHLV

T2: recombinant human Nectin4 antigen (human, UniProt Q96NY8 32-349)
T2 construct: construct not described
T2 sequence (looked up): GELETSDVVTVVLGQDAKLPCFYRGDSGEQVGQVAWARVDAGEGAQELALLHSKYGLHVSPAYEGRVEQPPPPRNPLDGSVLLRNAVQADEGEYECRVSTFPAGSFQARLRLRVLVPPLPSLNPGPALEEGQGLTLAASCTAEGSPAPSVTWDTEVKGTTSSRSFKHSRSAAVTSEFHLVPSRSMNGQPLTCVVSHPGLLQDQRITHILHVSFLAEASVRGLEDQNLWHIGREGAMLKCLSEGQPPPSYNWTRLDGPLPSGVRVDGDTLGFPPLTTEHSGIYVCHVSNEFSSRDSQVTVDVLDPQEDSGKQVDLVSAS

B1: BAP-143-06-24-16 (antibody, V domains shown)
VH: EVQLVQSGAEVKKPGATVKISCKVSGFTFSSYNMNWIRQSPSRGLEWLGYISSSSSTIYYADSVKGRFTISRDNSKNTLYLQMNSLRAEDTAVYYCARAYYYGDDVWGQGTLVTVSS
VL: DIQMTQSPSSVSASVGDRVTITCHASQGISGWLAWYQQKPGKAPKFLIYAASTLQSGVPSRFSGSGSGTDFTLTISSLQPEDFATYYCQQANSFPPTFGGGTKVEIK
notes: Used as a conjugate with a linker payload (CAB ADC)
B2: BAP-143-06-33-03 (antibody, V domains shown)
VH: QVQLVQSGAEVKKPGASVKVSCKASGFTFSSYNMNWVRQARGQRLEWIGYISSSSSTIYYADSVKGRFTISRDNSKNTLYLQMNSLRAEDTAVYYCARAYYYGMDKWGQGTLVTVSS
VL: B1 VL with H24R, F94E
notes: as for B1
B3: BAP-143-06-33-16 (antibody, V domains shown)
VH: B1 VH
VL: B1 VL with H24R, L33E
notes: as for B1
B4: BAP-143-07-03-12 (antibody, V domains shown)
VH: EVQLVESGGGLVQPGGSLRLSCAASGFTFSSYNMNWVRQAPGKGLEWVSYISSSSSTIYYADSVKGRFTISRDNAKNSLSLQMNSLRDEDTAVYYCARAYYYGMDKWGQGTTVTVSS
VL: B1 VL with H24R, L33E
notes: as for B1

These binders were tested against T1, human Nectin-4 on cells (assay: FACS, T47D cells).

binding | Binder
binds | B1
binds | B2
binds | B3
binds | B4

These binders were tested against T2, recombinant human Nectin4 antigen (assay: pH range ELISA (pH 5.5-7.4), coated recombinant human Nectin-4, ADC at 30 ng/mL).

binding | Binder
binds | B1

Each binder was assayed against T1, human Nectin-4 on cells (assay: FACS, HEK293 cells expressing human Nectin-4, pH 6.0).

binding | Binder
binds | B1
binds | B2
binds | B3
binds | B4

The binders below were run against cyno Nectin-4 on cells (cyno) (assay: FACS, HEK293 cells expressing cyno Nectin-4, pH 6.0).

binding | Binder
binds | B1
binds | B2
binds | B3
binds | B4

Each binder was assayed against cyno Nectin-4 on cells (cyno) (assay: FACS, HEK293 cells expressing cyno Nectin-4).

binding | Binder
binds | B1
binds | B2
binds | B3
binds | B4

The binders below were run against T1, human Nectin-4 on cells (assay: FACS, T47D cells (human Nectin-4), pH 7.4).

binding | Binder
binds | B1
binds | B2
binds | B3
binds | B4

These binders were tested against T2, recombinant human Nectin4 antigen (assay: ELISA, coated recombinant human Nectin-4, pH 6.0, ADC titrated).

binding | Binder
binds | B1

The binders below were run against cynoNectin4 antigen (cynomolgus (cyno)) (assay: ELISA, coated cyno Nectin-4, pH 7.4, ADC titrated).

binding | Binder
binds | B1
binds | B2
binds | B3
binds | B4

What follows are binders tested against cynoNectin4 antigen (cynomolgus (cyno)) (assay: ELISA, coated cyno Nectin-4, pH 6.0, ADC titrated).

binding | Binder
binds | B1
binds | B2
binds | B3
binds | B4

These binders were tested against T1, human Nectin-4 on cells (assay: FACS, T47D cells (human Nectin-4), pH 6.0).

binding | Binder
binds | B1
binds | B2
binds | B3
binds | B4

What follows are binders tested against T1, human Nectin-4 on cells (assay: FACS, HEK293 cells expressing human Nectin-4).

binding | Binder
binds | B1
binds | B2
binds | B3
binds | B4

What follows are binders tested against cyno Nectin-4 on cells (cyno) (assay: FACS, HEK293 cells expressing cyno Nectin-4, pH 7.4).

binding | Binder
binds | B1
binds | B2
binds | B3
binds | B4

Each binder was assayed against T1, human Nectin-4 on cells (assay: FACS, HEK293 cells expressing human Nectin-4, pH 7.4).

binding | Binder
binds | B1
binds | B2
binds | B3
binds | B4

Each binder was assayed against T2, recombinant human Nectin4 antigen (assay: ELISA, coated recombinant human Nectin-4, pH 7.4, ADC titrated).

binding | Binder
binds | B1
